In US12234288B2 (IO Biotech ApS, priority 2018, dated 2025) one finds outcome data, which are given here for 1 sequence.

This series is described as follows: peptide made by a vendor. Particulars: whole synthesis.

Where a sequence shows no end group, the ends are not given.

For GFSWIKPCISSASIVYIGLR, the outcome is given as “Arg2-E17 could not be synthesised by routine methods”.
